# Results from ChEMBL document CHEMBL4316593 (Eur J Med Chem, 2019).
# Further values from the same series stand in other lists.
# What was measured:
# Assay type in all cases: cell-based
# Conditions in all cases: U-87MG ATCC
# [1] = Inhibition of RTK/PI3K/AKT/mTOR signaling in human U87 cells assessed as down regulation of SMPD1 gene expression at cytotoxic IC50 measured after 48 hrs relative to control
# [2] = Inhibition of RTK/PI3K/AKT/mTOR signaling in human U87 cells assessed as down regulation of GREB1L gene expression at cytotoxic IC50 measured after 48 hrs relative to control
# [3] = Inhibition of RTK/PI3K/AKT/mTOR signaling in human U87 cells assessed as down regulation of GADD45B gene expression at cytotoxic IC50 measured after 48 hrs relative to control
# [4] = Inhibition of RTK/PI3K/AKT/mTOR signaling in human U87 cells assessed as down regulation of LACC1 gene expression at cytotoxic IC50 measured after 48 hrs relative to control
# [5] = Inhibition of RTK/PI3K/AKT/mTOR signaling in human U87 cells assessed as down regulation of OSGIN2 gene expression at cytotoxic IC50 measured after 48 hrs relative to control
# [6] = Inhibition of RTK/PI3K/AKT/mTOR signaling in human U87 cells assessed as down regulation of CCDC93 gene expression at cytotoxic IC50 measured after 48 hrs relative to control
# [7] = Inhibition of RTK/PI3K/AKT/mTOR signaling in human U87 cells assessed as down regulation of TBCD gene expression at cytotoxic IC50 measured after 48 hrs relative to control
# [8] = Inhibition of RTK/PI3K/AKT/mTOR signaling in human U87 cells assessed as down regulation of CD59 gene expression at cytotoxic IC50 measured after 48 hrs relative to control
# [9] = Inhibition of RTK/PI3K/AKT/mTOR signaling in human U87 cells assessed as down regulation of C5orf22 gene expression at cytotoxic IC50 measured after 48 hrs relative to control
# [10] = Inhibition of RTK/PI3K/AKT/mTOR signaling in human U87 cells assessed as down regulation of EMC8 gene expression at cytotoxic IC50 measured after 48 hrs relative to control
# [11] = Inhibition of RTK/PI3K/AKT/mTOR signaling in human U87 cells assessed as down regulation of MITF gene expression at cytotoxic IC50 measured after 48 hrs relative to control
# [12] = Inhibition of RTK/PI3K/AKT/mTOR signaling in human U87 cells assessed as down regulation of SAP130 gene expression at cytotoxic IC50 measured after 48 hrs relative to control
# [13] = Inhibition of RTK/PI3K/AKT/mTOR signaling in human U87 cells assessed as down regulation of C14orf2 gene expression at cytotoxic IC50 measured after 48 hrs relative to control
# [14] = Inhibition of RTK/PI3K/AKT/mTOR signaling in human U87 cells assessed as down regulation of DOCK7 gene expression at cytotoxic IC50 measured after 48 hrs relative to control
# [15] = Inhibition of RTK/PI3K/AKT/mTOR signaling in human U87 cells assessed as down regulation of GOLM1 gene expression at cytotoxic IC50 measured after 48 hrs relative to control
# [16] = Inhibition of RTK/PI3K/AKT/mTOR signaling in human U87 cells assessed as down regulation of PLEC gene expression at cytotoxic IC50 measured after 48 hrs relative to control
# [17] = Inhibition of RTK/PI3K/AKT/mTOR signaling in human U87 cells assessed as up regulation of EGLN3 gene expression at cytotoxic IC50 measured after 48 hrs relative to control
# [18] = Inhibition of RTK/PI3K/AKT/mTOR signaling in human U87 cells assessed as up regulation of PDGFA gene expression at cytotoxic IC50 measured after 48 hrs relative to control
# [19] = Inhibition of RTK/PI3K/AKT/mTOR signaling in human U87 cells assessed as up regulation of PDGFB gene expression at cytotoxic IC50 measured after 48 hrs relative to control
# [20] = Inhibition of RTK/PI3K/AKT/mTOR signaling in human U87 cells assessed as up regulation of HILPDA gene expression at cytotoxic IC50 measured after 48 hrs relative to control
# [21] = Inhibition of RTK/PI3K/AKT/mTOR signaling in human U87 cells assessed as up regulation of PLPP2 gene expression at cytotoxic IC50 measured after 48 hrs relative to control
# [22] = Inhibition of RTK/PI3K/AKT/mTOR signaling in human U87 cells assessed as up regulation of KIRREL gene expression at cytotoxic IC50 measured after 48 hrs relative to control
# [23] = Inhibition of RTK/PI3K/AKT/mTOR signaling in human U87 cells assessed as up regulation of retinoic acid receptor gamma gene expression at cytotoxic IC50 measured after 48 hrs relative to control
# [24] = Inhibition of RTK/PI3K/AKT/mTOR signaling in human U87 cells assessed as up regulation of potassium two pore domain channel subfamily K member 6 gene expression at cytotoxic IC50 measured after 48 hrs relative to control
# [25] = Inhibition of RTK/PI3K/AKT/mTOR signaling in human U87 cells assessed as up regulation of OPA3, outer mitochondrial membrane lipid metabolism regulator gene expression at cytotoxic IC50 measured after 48 hrs relative to control
# [26] = Inhibition of RTK/PI3K/AKT/mTOR signaling in human U87 cells assessed as up regulation of ALG12, alpha-1,6-mannosyltransferase gene expression at cytotoxic IC50 measured after 48 hrs relative to control
# [27] = Inhibition of RTK/PI3K/AKT/mTOR signaling in human U87 cells assessed as up regulation of chromosome 8 open reading frame 82 gene expression at cytotoxic IC50 measured after 48 hrs relative to control
# [28] = Inhibition of RTK/PI3K/AKT/mTOR signaling in human U87 cells assessed as up regulation of calcium voltage-gated channel subunit alpha1 H gene expression at cytotoxic IC50 measured after 48 hrs relative to control
# [29] = Inhibition of RTK/PI3K/AKT/mTOR signaling in human U87 cells assessed as up regulation of lipin 3 gene expression at cytotoxic IC50 measured after 48 hrs relative to control
# [30] = Inhibition of RTK/PI3K/AKT/mTOR signaling in human U87 cells assessed as up regulation of UDP-glucose glycoprotein glucosyltransferase 1 gene expression at cytotoxic IC50 measured after 48 hrs relative to control
# [31] = Inhibition of RTK/PI3K/AKT/mTOR signaling in human U87 cells assessed as up regulation of extended synaptotagmin 2 gene expression at cytotoxic IC50 measured after 48 hrs relative to control
# [32] = Inhibition of RTK/PI3K/AKT/mTOR signaling in human U87 cells assessed as up regulation of RPL7 gene expression at cytotoxic IC50 measured after 48 hrs relative to control
smiles,measurement,setting,value
CC(=O)C(=NNc1ccccc1C#N)C(C)=O,log2FC,[1],-3.11
same,log2FC,[2],-2.17
same,log2FC,[3],-2.59
same,log2FC,[4],-1.18
same,log2FC,[5],-1.05
same,log2FC,[6],-1.04
same,log2FC,[7],-0.993
same,log2FC,[8],-0.872
same,log2FC,[9],-0.817
same,log2FC,[10],-0.769
same,log2FC,[11],-1.82
same,log2FC,[12],-0.596
same,log2FC,[13],-0.513
same,log2FC,[14],-0.498
same,log2FC,[15],-0.49
same,log2FC,[16],-0.487
same,log2FC,[17],3.45
same,log2FC,[18],2.29
same,log2FC,[19],2.19
same,log2FC,[20],1.8
same,log2FC,[21],1.72
same,log2FC,[22],1.63
same,log2FC,[23],1.46
same,log2FC,[24],1.38
same,log2FC,[25],1.22
same,log2FC,[26],1.14
same,log2FC,[27],1.03
same,log2FC,[28],0.962
same,log2FC,[29],0.889
same,log2FC,[30],0.809
same,log2FC,[31],0.732
same,log2FC,[32],0.329
